Assay results from PubChem BioAssay AID330 (DTP/NCI, 2004).
The list is a part of this screen's results and no random one: it is rich in T/C values a quarter to a half above the control, in often repeated tests (any T/C) and in doses without a T/C. Other doses and runs of a compound stand elsewhere. T/C: endpoint of the treated group in % of that of the vehicle group. Some doses have a count of surviving animals in place of a T/C: the source files T/C as zero there, which appears to mark a toxic dose or a test without result, not a measured value. Some survivor counts are full or nearly so, which does not show that the dose was tolerated: the source hardly ever lists a survival T/C far under the control, and the zero likely stands for such cases as well. Counts of survivors are from the toxicity check (mostly the fifth day) where no day follows; animals may have died later. Schedule codes are those of the source, read here as Q, the interval in days (D) or hours (H), X, the number of doses. Some entries were tested several times; their values stand side by side, smallest first. For survival time, the PubChem record calls one and a half times the control and up active, and a quarter to a half above the control has no call in these data; cut-offs in other NCI protocols can differ. Some T/C values carry the count of animals alive at the toxicity check (mostly the fifth day); where none is given, no animal had died by that day.

Tested on: P388 leukemia ip, CD2F1 mice, survival T/C
Test: NCI In Vivo Anticancer Drug Screen. Data for tumor model P388 Leukemia (intraperitoneal) in CD2F1 (CDF1) mice
Settings: T/C endpoint: median survival time, higher T/C = longer survival
[1] = dose: 25.0 mg/kg/injection, schedule: Q01DX005 (ip), vehicle: saline
[2] = dose: 50.0 mg/kg/injection, schedule: Q01DX005 (ip), vehicle: saline
[3] = dose: 100.0 mg/kg/injection, schedule: Q01DX005 (ip), vehicle: saline
[4] = dose: 12.5 mg/kg/injection, schedule: Q01DX005 (ip), vehicle: saline with Tween-80
[5] = dose: 100.0 mg/kg/injection, schedule: Q01DX005 (ip), vehicle: saline with Tween-80
[6] = dose: 200.0 mg/kg/injection, schedule: Q01DX005 (ip), vehicle: saline with Tween-80

## Cc1c2c(c(O)c3c(O)cccc13)C(=O)C1(O)C(O)=C(C(=O)NCNc3ccc(C(N)=O)cn3)C(=O)C(N(C)C)C1C2 (configuration not stated)
dose: 12.5 mg/kg/injection, schedule: Q01DX005 (ip), vehicle: saline
  T/C: 136 % of control
[1]
  T/C: 136 % of control
[2]
  survivor count: 6 of 6
[3]
  survivor count: 5 of 6
dose: 200.0 mg/kg/injection, schedule: Q01DX005 (ip), vehicle: saline
  survivor count: 0 of 6

## S=C(N/N=C1/CCCC/C1=N/NC(=S)N1CCOCC1)N1CCOCC1
dose: 6.25 mg/kg/injection, schedule: Q01DX005 (ip), vehicle: saline with Tween-80
  T/C: 96, 106, 116 [5 of 6 alive], 118 % of control
[4]
  T/C: 86 and 123 % of control
  survivor count: 4 of 5 and 5 of 5
dose: 25.0 mg/kg/injection, schedule: Q01DX005 (ip), vehicle: saline with Tween-80
  survivor count: 4 of 5, 5 of 6, 5 of 5
dose: 50.0 mg/kg/injection, schedule: Q01DX005 (ip), vehicle: saline with Tween-80
  survivor count: 1 of 5
[5]
  survivor count: 0 of 5
[6]
  survivor count: 0 of 5

## C/C(=N\NC(=O)c1ccncc1)c1cccc(/C(C)=N/NC(=O)c2ccncc2)n1.CC(=O)[O-].CC(=O)[O-].[Zn+2]
[5]
  survivor count: 6 of 6
[6]
  survivor count: 6 of 6

## O=c1[nH]c2ccccc2cc1CBr
dose: 200.0 mg/kg/injection, schedule: Q04DX002 (ip), vehicle: Klucel (hydroxypropylcellulose) (HPC)
  survivor count: 2 of 6 and 5 of 6

## CCOP(O)(=S)OCC.[Fe]
dose: 50.0 mg/kg/injection, schedule: Q01DX001 (ip), vehicle: saline with Tween-80
  T/C: 136 % of control
dose: 100.0 mg/kg/injection, schedule: Q01DX001 (ip), vehicle: saline with Tween-80
  survivor count: 6 of 6
dose: 200.0 mg/kg/injection, schedule: Q01DX001 (ip), vehicle: saline with Tween-80
  survivor count: 6 of 6
dose: 400.0 mg/kg/injection, schedule: Q01DX001 (ip), vehicle: saline with Tween-80
  survivor count: 6 of 6

## COC(=O)c1[nH]c(=S)[nH]c(=O)c1C
[6]
  survivor count: 0 of 6

## C[C@@H]1[C@H](c2ccccc2)OCN1C
[1]
  survivor count: 6 of 6
[2]
  survivor count: 5 of 6
dose: 60.0 mg/kg/injection, schedule: Q01DX005 (ip), vehicle: saline
  T/C: 127 % of control
[3]
  survivor count: 4 of 6
dose: 120.0 mg/kg/injection, schedule: Q01DX005 (ip), vehicle: saline
  T/C: 127 and 132 % of control
dose: 240.0 mg/kg/injection, schedule: Q01DX005 (ip), vehicle: saline
  survivor count: 0 of 6

## O=C(O)c1cc2c3ccccc3sc2c2ccccc12
dose: 60.0 mg/kg/injection, schedule: Q01DX005 (ip), vehicle: Klucel (hydroxypropylcellulose) (HPC)
  survivor count: 6 of 6
dose: 120.0 mg/kg/injection, schedule: Q01DX005 (ip), vehicle: Klucel (hydroxypropylcellulose) (HPC)
  survivor count: 6 of 6

## C=CC1(C)CCC2C(=CCC3C2(C)CC(O)C(O)C3(C)COC2OC(C(=O)O)C(O)C(O)C2O)C1 (configuration not stated) (tested in a mixture with another compound)
dose: 200.0 mg/kg/injection, schedule: Q01DX009 (ip), vehicle: Klucel (hydroxypropylcellulose) (HPC)
  survivor count: 4 of 6

## CC1CN=C(c2ccc(NC(=O)c3ccc(C(=O)Nc4ccc(C5=NCC(C)N5)cc4)c(N)c3)cc2)N1 (configuration not stated)
dose: 5.0 mg/kg/injection, schedule: Q04DX003 (ip), vehicle: saline with Tween-80
  T/C: 136 % of control
dose: 20.0 mg/kg/injection, schedule: Q04DX003 (ip), vehicle: saline with Tween-80
  survivor count: 2 of 6
dose: 100.0 mg/kg/injection, schedule: Q04DX003 (ip), vehicle: saline
  survivor count: 0 of 6
dose: 200.0 mg/kg/injection, schedule: Q04DX003 (ip), vehicle: saline
  survivor count: 0 of 6
dose: 400.0 mg/kg/injection, schedule: Q04DX003 (ip), vehicle: saline
  survivor count: 0 of 6

## CCC1=CC2CN(CCc3c([nH]c4ccccc34)C(C(=O)OC)(c3cc4c(cc3OC)N(C=O)C3C(O)(C(=O)NC)C(OC(C)=O)C5(CC)C=CCN6CCC43C65)C2)C1 (configuration not stated)
dose: 0.25 mg/kg/injection, schedule: Q01DX001 (ip), vehicle: water
  T/C: 132 and 149 % of control
dose: 0.5 mg/kg/injection, schedule: Q01DX001 (ip), vehicle: water
  T/C: 141 and 149 % of control
dose: 1.0 mg/kg/injection, schedule: Q01DX001 (ip), vehicle: water
  T/C: 146 % of control
dose: 2.0 mg/kg/injection, schedule: Q01DX001 (ip), vehicle: water
  survivor count: 3 of 6
dose: 4.0 mg/kg/injection, schedule: Q01DX001 (ip), vehicle: water
  survivor count: 3 of 6
dose: 8.0 mg/kg/injection, schedule: Q01DX001 (ip), vehicle: water
  survivor count: 0 of 6
dose: 16.0 mg/kg/injection, schedule: Q01DX001 (ip), vehicle: water
  survivor count: 0 of 6
dose: 32.0 mg/kg/injection, schedule: Q01DX001 (ip), vehicle: water
  survivor count: 0 of 6

## CC(C)=CCc1ccc2c(c1)CCCN2C
dose: 400.0 mg/kg/injection, schedule: Q04DX002 (ip), vehicle: saline with Tween-80
  survivor count: 0 of 6

## O=S(=O)(O)c1ccc(-c2c3nc(c(-c4ccc(S(=O)(=O)O)cc4)c4ccc([nH]4)c(-c4ccc(S(=O)(=O)O)cc4)c4nc(c(-c5ccc(S(=O)(=O)O)cc5)c5ccc2[nH]5)C=C4)C=C3)cc1
dose: 25.0 mg/kg/injection, schedule: Q01DX009 (ip), vehicle: distilled water + Tween-80
  survivor count: 6 of 6
dose: 50.0 mg/kg/injection, schedule: Q01DX009 (ip), vehicle: distilled water + Tween-80
  survivor count: 6 of 6
dose: 100.0 mg/kg/injection, schedule: Q01DX009 (ip), vehicle: distilled water + Tween-80
  survivor count: 3 of 6
dose: 200.0 mg/kg/injection, schedule: Q01DX009 (ip), vehicle: distilled water + Tween-80
  survivor count: 0 of 6

## CS(=O)(=O)OCCCCOS(C)(=O)=O
dose: 7.5 mg/kg/injection, schedule: Q01DX009 (ip), vehicle: saline with Tween-80
  survivor count: 10 of 10
dose: 30.0 mg/kg/injection, schedule: Q03HX024 (ip), vehicle: saline with Tween-80
  survivor count: 9 of 10
dose: 60.0 mg/kg/injection, schedule: Q01DX009 (oral), vehicle: saline with Tween-80
  survivor count: 9 of 10
dose: 60.0 mg/kg/injection, schedule: Q04DX003 (ip), vehicle: saline with Tween-80
  survivor count: 9 of 10
[5]
  survivor count: 0 of 6 and 1 of 6
dose: 120.0 mg/kg/injection, schedule: Q01DX001 (ip), vehicle: saline with Tween-80
  survivor count: 6 of 10
dose: 120.0 mg/kg/injection, schedule: Q01DX001 (oral), vehicle: saline with Tween-80
  survivor count: 6 of 10
dose: 120.0 mg/kg/injection, schedule: Q01DX009 (oral), vehicle: saline with Tween-80
  survivor count: 1 of 10
dose: 120.0 mg/kg/injection, schedule: Q04DX003 (ip), vehicle: saline with Tween-80
  survivor count: 7 of 10
dose: 120.0 mg/kg/injection, schedule: Q08DX002 (ip), vehicle: saline with Tween-80
  survivor count: 6 of 10
[6]
  survivor count: 0 of 6
dose: 240.0 mg/kg/injection, schedule: Q01DX001 (ip), vehicle: saline with Tween-80
  survivor count: 6 of 10
dose: 240.0 mg/kg/injection, schedule: Q01DX001 (oral), vehicle: saline with Tween-80
  survivor count: 0 of 10
dose: 240.0 mg/kg/injection, schedule: Q04DX003 (ip), vehicle: saline with Tween-80
  survivor count: 9 of 10
dose: 480.0 mg/kg/injection, schedule: Q01DX001 (oral), vehicle: saline with Tween-80
  survivor count: 0 of 10
